These results are taken from publication doi:10.1101/2025.03.26.645568.

This experiment deals with Mam1D with C-terminal Strep-tag (co-expression construct) (Mycobacterium tuberculosis). Nature of the experiment: pull-down + SEC.

These are yes or no findings as the source states them, for the method shown. In cells and extracts the contact can be indirect. Binding can be weak; no strength is given. Sequences can lack the tags named with a protein.

B1: LucA without tag (co-expression construct) (protein, UniProt O69690 1-254)
chain: MGRKVAVLWHASFSIGAGVLYFYFVLPRWPELMGDTGHSLGTGLRIATGALVGLAALPVVFTLLRTRKPELGTPQLALSMRIWSIMAHVLAGALIVGTAISEVWLSLDAAGQWLFGIYGAAAAIAVLGFFGFYLSFVAELPPPPPKPLKPKKPKQRRLRRKKTAKGDEAEPEAAEEAENTELAAQEDEEAVEAPPESIESPGGEPESATREAPAAETATAEEPRGGLRNRRPTGKTSHRRRRTRSGVQVAKVDE
In the case of B1, the binding entry is “binds”.
